# Assay results from the supplement of paper PMC12578635.
# ± gives the standard deviation of the averaged measurements. This is one part of the list. Single values are uncertain, as repeats are few or missing.
# Tested on: RAW 264.7 macrophages infected with S. aureus JE2-lux
# Assay: host macrophage viability (CellTiter-Fluor) relative to DMSO vehicle; higher = more viable host cells
# Settings: 10 µM; treatment time 4 h; gentamicin 50 µg/ml
row,SMILES,host macrophage viability
1,COc1cccc(C2C(C(=O)c3ccncc3)=C(O)C(=O)N2CCCN2CCOCC2)c1 (stereo not drawn),102%
2,O=C(Nn1c(C2CCC2)nc2ccccc2c1=O)c1ccc(-c2ccccc2)cc1,116%
3,CC(=O)Nc1cc2nc(C)n(Cc3ccccc3[N+](=O)[O-])c2nc1C,110%
4,Cc1ccc(C)c(NS(=O)(=O)c2ccc3[nH]c(=O)cc(C)c3c2)c1,131%
5,Cc1ccnc(N2CCCC(C(=O)NCc3ccc(Cl)cc3)C2)n1 (stereo not drawn),129%
6,O=C(c1ccc(Cn2c(=O)c(=O)[nH]c3cccnc32)cc1)N1CCN(c2ncccn2)CC1,119%
7,C=CCNC(=O)CCCCCn1c(=O)[nH]c2ccsc2c1=O,114%
8,[N-]=[N+]=NC1CC(CO)OC1n1ccc(=O)[nH]c1=O (stereo not drawn),109%
9,O=C(Nc1cc(C(F)(F)F)ccc1Cl)c1cnc2n(c1=O)CCS2,106%
10,CC1CCc2c(sc(NC(=O)CN(C(=O)c3ccco3)C3CCCCC3)c2C(N)=O)C1 (stereo not drawn),103%
11,CCc1ccc(NC(=O)c2cnn3c(N)c(C#N)c(-c4ccc(Br)cc4)nc23)cc1,109%
12,CC(=O)c1ccc(Nc2nc(N3CCOCC3)nc(N3CCOCC3)n2)cc1,107%
13,C/C(=N\N)c1c(-c2ccccc2)c2cc(C)ccc2[nH]c1=O,114%
14,O=C(N/N=C/c1csc([N+](=O)[O-])c1)c1cc2ccccc2cc1O,103%
15,CCOCCCNC(=O)C(=O)c1cn(CC(=O)N2CCCCCC2)c2ccccc12,106%
16,COc1ccc(NC(=O)CSc2nccn(-c3ccc(C)c(F)c3)c2=O)c(OC)c1,130%
17,COc1cc2nc(NC(=O)c3ccc(C(C)=O)cc3)sc2cc1OC,116%
18,O=C(NCCS(=O)c1c(-c2ccc(F)cc2)[nH]c2ccccc12)C(=O)c1c[nH]c2ccccc12 (stereo not drawn),117 ± 7.4%
19,O=C(CSc1nnc2sc3ccccc3n12)NCc1ccco1,131%
20,COCCCNc1nc2c(c(=O)[nH]c(=O)n2C)n1CC(=O)c1ccccc1,126%
21,CCCCN(C)C(=O)CSc1nccnc1N1CCN(c2cccc(C)c2C)CC1,77.6%
22,CCn1cc(NC(=O)Nc2nccs2)c2ccccc21,135%
23,COc1cccc(OC(C)C(=O)Nc2nc3c(s2)CCc2c-3cnn2C)c1 (stereo not drawn),101%
24,COc1ccc(C2c3cccn3CCN2C(=O)Nc2ccc(C)c(C)c2)cc1 (stereo not drawn),124%
25,O=S(=O)(c1ccc(N2CCC(CNc3ncccn3)CC2)cc1)N1CCCC1,124%

row,SMILES,host macrophage viability
1,COc1ccccc1NC(=O)CSc1ncnc2c1sc1nc3cc(C)ccc3cc12,111%
2,Cn1c(=O)c2c(SCc3ccc(Cl)cc3Cl)ccnc2n(C)c1=O,125%
3,O=C(NCCC1CCCCN1S(=O)(=O)c1ccccc1)C(=O)NCc1cccnc1 (stereo not drawn),116%
4,COc1cccc(/C=N/NC(=O)c2cc3cc([N+](=O)[O-])ccc3s2)c1O,131%
5,Cc1cccc(NC(=O)CSc2nnc3sc4ccccc4n23)c1,116 ± 16%
6,CCc1cccc(Nc2cc(-n3nc(C)cc3C)ncn2)c1,101%
7,CCOCCCNc1nc(-c2nnc(-c3ccccc3)o2)nc2ccccc12,105%
8,O=C1Nc2ccccc2/C1=N/NC(=O)C(c1ccccc1)c1ccccc1,105%
9,Cc1sc2nc(SCC(=O)c3ccc4c(c3)NC(=O)CO4)nc(N)c2c1C,111%
10,Cc1c(C)n(CCCN2CCOCC2)c2ncn3nc(C(C)N4C(=O)c5ccccc5C4=O)nc3c12 (stereo not drawn),94.8%
11,CC1=C(C(=O)OCc2ccccc2)C(c2ccc(O)cc2)n2ncnc2N1 (stereo not drawn),123%
12,Cc1cc(NC(=O)CSc2nnc3ccccn23)no1,105%
13,Cc1ccc(-c2nsc(NC(=O)COc3ccccc3)n2)s1,119%
14,COc1ccccc1N1CCN(c2cc(=O)n(-c3ccc(Br)cc3)c(=O)[nH]2)CC1,119 ± 5%
15,CCN1CCN(CCNC(=O)c2cc3n(n2)CCCN(Cc2ccccc2)C3=O)CC1,117%
16,COC(=O)c1ccsc1NC(=O)COc1ccc(Cl)cc1Cl,119%
17,CCOC(=O)c1c(-c2ccc(F)cc2)csc1NC(=O)CN1CCOCC1,101%
18,CCN(CC)S(=O)(=O)c1ccc(C(=O)Nc2ncnc3sccc23)cc1,116%
19,Cc1cccc(NC(=O)C(C)n2c(C)nc3onc(C)c3c2=O)c1 (stereo not drawn),113%
20,Cc1ccccc1C1CC(=O)c2c(C)nc(N)nc2C1 (stereo not drawn),113%
21,O=C1CC(NS(=O)(=O)c2cccs2)CN1c1ccc(Cl)cc1 (stereo not drawn),110%
22,CCS(=O)(=O)c1ccc(C(=O)Nc2nc3c(Cl)c(Cl)ccc3s2)cc1,111%
23,CCCNC(=O)Cn1nc(-c2ccc(F)cc2)c2cnc3cc(OC)c(OC)cc3c21,124%
24,CCc1ccccc1NC(=O)Cn1c(C)cc(=O)n2nc(-c3cccc(C)c3)nc12,102%
25,Cc1cc(=O)n2c3ccccc3n(CC(O)CNc3ccc(C(C)C)cc3)c2c1C#N (stereo not drawn),135%

# Reformatted bar-delimited: entries from further up.
row | SMILES | host macrophage viability
3 | O=C(NCCC1CCCCN1S(=O)(=O)c1ccccc1)C(=O)NCc1cccnc1 (stereo not drawn) | 116%
4 | COc1cccc(/C=N/NC(=O)c2cc3cc([N+](=O)[O-])ccc3s2)c1O | 131%

# (next part)

row,SMILES,host macrophage viability
1,CCn1cc(C(=O)Nc2ccc(OC(F)(F)F)cc2)c2nn(-c3ccccc3)c(=O)c-2c1,110%
2,Cc1nc2ccccc2c(=O)n1-c1cccc(NC(=O)c2cc([N+](=O)[O-])cc([N+](=O)[O-])c2)c1,104%
3,CCC(Oc1ccc(F)cc1)C(=O)Nc1noc(-c2ccccc2C)n1 (stereo not drawn),103%
4,NC1=NN(c2ccccc2)C(=O)/C1=N\Nc1ccc2c(c1)OCO2,105%
5,COC(=O)c1ccc(C(=O)NC(=S)Nc2sc3c(c2C#N)CCCCC3)cc1,115 ± 5.6%
6,Nc1cc(Cl)c([N+](=O)[O-])cc1OCc1ccccc1,105%
7,O=C(Oc1c(CN2CCOCC2)cc(Cl)c2cccnc12)c1cccc([N+](=O)[O-])c1,139%
8,Cc1ccc(CSc2oc(-c3ccco3)nc2S(=O)(=O)c2ccccc2)cc1,111%
9,COc1ccc(-c2nc3sc(C)nn3c2NC2CCCCC2)cc1,126%
10,COc1cccc(NCc2nc3[nH]c(C)c(Cc4ccccc4)c(=O)n3n2)c1,94.6%
11,COC(=O)NC(=O)c1c(NC(=O)c2cc3ccccc3oc2=O)sc(C)c1C,118%
12,Cc1ccc(/C=C2/SC(=S)N(c3ccc(C(=O)O)c(O)c3)C2=O)o1,118%
13,Oc1ccc(Br)c(C2Nc3ccc(F)cc3[C@H]3OCC[C@@H]23)c1 (stereo partly drawn),116%
14,COCCOC(=O)c1c(C)oc2cc(Br)c(OCC(N)=O)cc12,94.5%
15,O=C(Nc1ccc2c(c1)CCC2)C1CCN(C(=O)Nc2ccc(Cl)cc2)CC1,120%
16,O=[N+]([O-])c1cccc(NC(c2ccco2)c2ccc3cccnc3c2O)c1 (stereo not drawn),141%
17,O=C(Nc1c(-c2ccccc2)nc2ccccn12)c1cccc([N+](=O)[O-])c1,112 ± 5.3%
18,COc1cc(NC(=O)Cn2cccc2-c2nc(-c3ccccc3)cs2)cc(OC)c1,126%
19,Cc1c(-c2cc(C(=O)O)c3cc(Br)ccc3n2)nnn1-c1ccccc1,127%
20,CCOC(=O)Cn1cnc2nn(-c3ccccc3)cc2c1=O,116%
21,CCS(=O)(=O)c1ccc(C(=O)Nc2ccc3sc(C)nc3c2)cc1,88.4%
22,CCN(CC)C(=O)Cn1cc(C(=O)C(=O)NCc2ccc3c(c2)OCO3)c2ccccc21,118%
23,O=C(NCCn1nnn(-c2ccccc2)c1=O)c1ccc(=O)[nH]n1,115%

# Among those listed so far, these have a CF3 group:
row,SMILES,host macrophage viability
9,O=C(Nc1cc(C(F)(F)F)ccc1Cl)c1cnc2n(c1=O)CCS2,106%
1,CCn1cc(C(=O)Nc2ccc(OC(F)(F)F)cc2)c2nn(-c3ccccc3)c(=O)c-2c1,110%
